These results are taken from publication PMC7819943, “Rice protein-binding microarrays: a tool to detect cis-acting elements near promoter regions in rice”.

This is one part of the list.

The assay addresses T1, OsSMF1 (Oryza sativa, UniProt Q6ZLB0 1-436).
T1 sequence: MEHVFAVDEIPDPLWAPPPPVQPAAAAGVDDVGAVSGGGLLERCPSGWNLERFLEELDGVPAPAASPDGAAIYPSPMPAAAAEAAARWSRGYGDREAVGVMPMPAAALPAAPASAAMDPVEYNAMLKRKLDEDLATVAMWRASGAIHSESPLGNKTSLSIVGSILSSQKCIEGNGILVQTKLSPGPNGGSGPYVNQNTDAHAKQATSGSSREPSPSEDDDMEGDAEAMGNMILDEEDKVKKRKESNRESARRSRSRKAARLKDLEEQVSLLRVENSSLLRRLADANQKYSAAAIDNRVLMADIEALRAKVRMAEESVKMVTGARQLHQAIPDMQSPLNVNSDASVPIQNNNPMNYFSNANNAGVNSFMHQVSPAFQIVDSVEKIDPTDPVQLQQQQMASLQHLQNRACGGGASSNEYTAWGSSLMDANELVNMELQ
Kind of assay: protein-binding microarray (RPBM); PBS, 2% BSA, 51.3 ng/ul salmon testes DNA, 50 uM zinc acetate, 200 nM TF, 25 C, 1 h; high values mean tight binding. The conditions noted are these: protein: recombinant; tags: N-terminal polyhistidine and DsRed monomer fusion (pET32a); chain copies: 2; label: CyDye5-dUTP incorporated in the synthesized complementary strand; 3' TTTTT single-stranded linker to array surface; dsDNA, one strand shown. A digest of the protocol: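 Transcription factors were each fused at the N-terminus to a polyhistidine tag plus DsRed and expressed in E. coli BL21-CodonPlus before Ni–NTA purification. Binding to a double-stranded custom Agilent array was carried out with 200 nM protein at 25 °C for 1 h in PBS, 2% BSA, salmon testes DNA and 50 µM zinc acetate. The binding signal is per-feature fluorescence intensity, in arbitrary units, on an Axon 4000B scanner.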
With “AGGGACTAAACTTTAGTCTCTGTGACATCAGATGTTTGGACGGAGTCACCTAGTGCAG”, the binding signal was 3690 fluorescence intensity (a.u.). With “GAGATAGTATTAGTTGTTGTTGTAGTCACAATGGTGAATGCGGAGTCACCTAGTGCAG” the figure was 3280 fluorescence intensity (a.u.); with “CCGGGGTCTCCACCGTCGGCTTCTCCGCCAGCCACCGAATCGGAGTCACCTAGTGCAG”, 4580 fluorescence intensity (a.u.).

For “CTTACCAAAATTTTGTAAGGTTTATTTTGGCTACAATCTGCGGAGTCACCTAGTGCAG”, the binding signal is 3610 fluorescence intensity (a.u.).

Consider “TTTAATACATGGGCCGCCCTTTGCCGTGGCGCGTCACCCACGGAGTCACCTAGTGCAG”, for which the binding signal is 5840 fluorescence intensity (a.u.). Consider “AAATATCTTCTCGATCGGTCTACAGTTCTGTGGGTGGGGACGGAGTCACCTAGTGCAG”, for which the binding signal is 4120 fluorescence intensity (a.u.). Then “TATAGTGAGTGATGAACCTATCATCGCTTACTCCCACCACCGGAGTCACCTAGTGCAG”, with 3980 fluorescence intensity (a.u.); and “TCAGGATGTGAATGTTAATGTATGCAATGCACGCAGGCAGCGGAGTCACCTAGTGCAG”, with 6660 fluorescence intensity (a.u.). With “AAGTATGCGCTGGCAAACCATAAGTCTAGTGGGGATTCTGCGGAGTCACCTAGTGCAG” the figure was 4140 fluorescence intensity (a.u.); with “TAAATTCTTGTTAATACTGACGTGTTATGTTATGAGTGCACGGAGTCACCTAGTGCAG”, 4280 fluorescence intensity (a.u.).

In the case of “TGCATGTGACCCGATCGTTGAATGCTTGAACACCGCGTGACGGAGTCACCTAGTGCAG”, the binding signal was 3280 fluorescence intensity (a.u.). With “GCATGCACGGGATTAACTAGAACCACATATGCCCTCGTTGCGGAGTCACCTAGTGCAG” the figure was 3430 fluorescence intensity (a.u.). With “TGTGTGTGTGTGTGTGTGTGTGTGTGTGTGTGTGTGTGTGCGGAGTCACCTAGTGCAG” the figure was 8180 fluorescence intensity (a.u.); with “TTAATCTATTCATGAATCATGATAGGTTTCACTATATATTCGGAGTCACCTAGTGCAG”, 3150 fluorescence intensity (a.u.).

Consider “TCTAGTATTCTAGTGTGTATGGGCATCAGCATCCCTGGACCGGAGTCACCTAGTGCAG”, for which the binding signal is 3640 fluorescence intensity (a.u.). With “TTAAGGGACACATGGTGTGAGTGTAGTGGTGTGTGTACGCCGGAGTCACCTAGTGCAG” the figure was 3840 fluorescence intensity (a.u.). In the case of “CGAGGTTTCTGTTTGTTAATTACTTACCGTGACAGTGAGCCGGAGTCACCTAGTGCAG”, the binding signal is 3440 fluorescence intensity (a.u.).

For “CAGGTACCAGGTATACTAGGTATCAGGATTAGCCTATTAGCGGAGTCACCTAGTGCAG”, the binding signal is 4230 fluorescence intensity (a.u.). As for “CGGCGCCGGGAGCGCCGCGGTGGAGGAGGCAGAGCAGCGACGGAGTCACCTAGTGCAG”, the binding signal was 28200 fluorescence intensity (a.u.). With “CTATCCGGTTTTACAGTTAAGGGTGACGAATTAGATTCGGCGGAGTCACCTAGTGCAG” the figure was 3600 fluorescence intensity (a.u.); with “CAAGCCTCACACTGTTTTGTTGCACGATGCGAGGTTCGCGCGGAGTCACCTAGTGCAG”, 3190 fluorescence intensity (a.u.); with “GTACAACTCTGCATACAACGTACACATACGCGTACCAACCCGGAGTCACCTAGTGCAG”, 3490 fluorescence intensity (a.u.). Then “ATTTGTGATGTGGATTTGGGGTGTTACTTTGATTTGGGGACGGAGTCACCTAGTGCAG”, with 5820 fluorescence intensity (a.u.). Then “TCAGCCATGCGCCGCTGACACGGAGGGCCCAGGAGCAAGACGGAGTCACCTAGTGCAG”, with 3430 fluorescence intensity (a.u.); and “GTATATATAGTCATTGACATCACACACACATTACGGTCATCGGAGTCACCTAGTGCAG”, with 3580 fluorescence intensity (a.u.). On to “AGCATGGATCCAACAGCCTCGACATGTCAGCAAATAGTTTCGGAGTCACCTAGTGCAG”, for which the binding signal was 7060 fluorescence intensity (a.u.).

Turning to “GGACCCATATATCATAGACACATGAGAACCCACATGTTACCGGAGTCACCTAGTGCAG”, the binding signal is 31100 fluorescence intensity (a.u.). With “GCTGTGTATGCCCACTTGTAAATATAGAGGCTGATGTTTACGGAGTCACCTAGTGCAG” the figure was 3690 fluorescence intensity (a.u.); with “ATCCTCCATCCCGACTTCCGGGGAGCCAAGCACCATGGGTCGGAGTCACCTAGTGCAG”, 31900 fluorescence intensity (a.u.). With “CAGCTACAACGTGGAATAGTGTCAGCGACCTAACACAGTACGGAGTCACCTAGTGCAG” the figure was 5250 fluorescence intensity (a.u.). For “ATACTGGACGATCTCACCACCCGCCTCGACTCCCTGTCAGCGGAGTCACCTAGTGCAG”, the binding signal was 3430 fluorescence intensity (a.u.). For “GAACGCCGAGATCACGCAACCTTGCGCCAGCGCCGCTACTCGGAGTCACCTAGTGCAG”, the binding signal is 3190 fluorescence intensity (a.u.). Then “CAGATCAAATCCGACGGCCAGAAACGCATCGGAGCGCTGACGGAGTCACCTAGTGCAG”, with 3200 fluorescence intensity (a.u.).

Consider “AATTACGGATACTTTGCTGATACGTATTGATACGCCCATACGGAGTCACCTAGTGCAG”, for which the binding signal was 3500 fluorescence intensity (a.u.). With “CCTCCCGAGCCCCGGCAACAAGCTCGCCACCGCAGCGCATCGGAGTCACCTAGTGCAG”, the binding signal was 4090 fluorescence intensity (a.u.). Then “TCTCGCAACGTGTTTTGTGCCAGCCAAGCTCCAGCGACCCCGGAGTCACCTAGTGCAG”, with 3160 fluorescence intensity (a.u.). With “CACGTTGACTCAACAGCCACGTAGGATAAAACCGGAATTACGGAGTCACCTAGTGCAG”, the binding signal is 12600 fluorescence intensity (a.u.). As for “CACGTGAAGAGATTGTGTGGCGTAGCATGATATCCTTGCGCGGAGTCACCTAGTGCAG”, the binding signal is 21600 fluorescence intensity (a.u.). With “ACGCAACGCAACGCAAGGCGACACTGCGCCTCGGGGAGTGCGGAGTCACCTAGTGCAG” the figure was 3140 fluorescence intensity (a.u.). On to “CCCAGCGGCTTTCCCATCGTCGCCGGCGGCCTGGAGCTCCCGGAGTCACCTAGTGCAG”, for which the binding signal is 3450 fluorescence intensity (a.u.).

For “TCCCCTCTCTGTTGTCATCGTCTTCCTTTCCTTTCCTTTCCGGAGTCACCTAGTGCAG”, the binding signal is 3600 fluorescence intensity (a.u.). As to “CCGACATCGACGACAACCACGTCGGCATCGACGACAACAGCGGAGTCACCTAGTGCAG”, the binding signal was 8050 fluorescence intensity (a.u.).
